{"source": "paper PMC2483489", "about": "(Acta Crystallographica Section D: Biological Crystallography, 2006)", "origin": "cited, not measured here", "key": {"Thr315Ile Abl": {"test_system": "Thr315Ile Abl", "settings": "read-out: IC50 for Thr315Ile; ref Cowan-Jacob et al., 2004"}, "Glu255Lys": {"test_system": "Glu255Lys", "settings": "read-out: IC50 for Glu255Lys; ref Cowan-Jacob et al., 2004"}, "Tyr253His": {"test_system": "Tyr253His", "settings": "read-out: IC50 for Tyr253His; ref Cowan-Jacob et al., 2004"}, "Gly250Glu": {"test_system": "Gly250Glu", "settings": "read-out: IC50 for Gly250Glu; ref Cowan-Jacob et al., 2004"}}, "data": [{"smiles": "Cc1ccc(NC(=O)c2ccc(CN3CCN(C)CC3)cc2)cc1Nc1nccc(-c2cccnc2)n1", "note": "[Imatinib, imatinib]", "values": [{"measurement": "IC50", "setting": "Thr315Ile Abl", "value": "> 10", "unit": "µM"}, {"measurement": "IC50", "setting": "Glu255Lys", "value": 6.7, "unit": "µM"}, {"measurement": "IC50", "setting": "Tyr253His", "value": "> 10", "unit": "µM"}, {"measurement": "IC50", "setting": "Gly250Glu", "value": 3000, "unit": "nM"}]}]}
